Assay results: US7829560B2, “1,4-disubstituted naphthalenes as inhibitors of P38 MAP kinase” (Arqule, Inc., priority 2004, dated 2010)
pIC50: −log10 of the molar value.

How the values were obtained:
[1] = tested on: TNFα release from THP-1 cells; assay: Inhibition of TNFα release from LPS-stimulated THP-1 cells, ELISA; type: cell-based; settings: Homo sapiens, THP-1, THP-1 cells, read-out: [CELL] THP-1, IC50, TNF ALPHA, ELISA
Text: Compounds of the invention are screened for the ability to inhibit TNFα and IL-1β release from THP-1 cells stimulated with lipopolysaccharide (LPS) in vitro. The ability of compounds to inhibit TNFα and IL-1β release in this in vitro assay is correlated with the inhibition of p38 activity and TNFα and IL-1β expression in vivo, and is therefore an indicator of potential in vivo therapeutic activity (Lee J. C. et al, Ann. N.Y. Acad. Sci. 696: 149-170, 1993 and Nature, 372: 739-746, 1994).
Materials: THP-1 cells from ATCC (TIB202) are maintained at 37° C., 5% CO2 in RPMI 1640 media (available from MediaTech, Herndon, Va.) containing 4.5 g/L glucose, supplemented with 10% fetal bovine serum, 1% penicillin/streptomycin and 50 μM β-mercaptoethanol.
Methods: Test compounds are initially dissolved in RPMI media with 1% DMSO (v/v). Compounds are then serially diluted in RPMI media for all subsequent dilutions. The assay is performed under sterile conditions. THP-1 cells at a culture density of 6-8×10^5 cells/ml are collected and resuspended in the RPMI media at 10^6 cells/ml containing 10% fetal bovine serum, no serum or 1% human serum albumin (HSA). […] TNFα and IL-1β levels are measured using ELISA kits from Biosource (Catalog no. KHC3012 for TNFα; KAC1192 for IL-1β). A SpectraMAX 250 is used as the plate reader. […]

pIC50 [1]: < 6.00 | melting point: 105 to 106 °C
Structure (SMILES): CCOC(=O)N1CCN(c2nccc(Oc3ccc(NC(=O)c4cc(F)cc(N5CCCCC5)c4)c4ccccc34)n2)CC1 [Compound B376, Ethyl 4-[4-({4-[(3-fluoro-5-piperidin-1-ylbenzoyl)amino]-1-naphthyl}oxy)pyrimidin-2-yl]piperazine-1-carboxylate]
